Test results: PMC5582827
Where a chain is given by its changes, count along the chain named. No constants are given. Whether binding was seen depends on the method and setting. In cells and extracts the contact can be indirect. Some binding calls cover weakened binding; strength is not graded here. Tags and fused reporters may be left off the sequences shown. Blank lines part the entries; values can stand above or below the binder they belong to.

Sequences of proteins named here, by UniProt entry; tags and fusion partners are left off.
UniProt Q9UM11: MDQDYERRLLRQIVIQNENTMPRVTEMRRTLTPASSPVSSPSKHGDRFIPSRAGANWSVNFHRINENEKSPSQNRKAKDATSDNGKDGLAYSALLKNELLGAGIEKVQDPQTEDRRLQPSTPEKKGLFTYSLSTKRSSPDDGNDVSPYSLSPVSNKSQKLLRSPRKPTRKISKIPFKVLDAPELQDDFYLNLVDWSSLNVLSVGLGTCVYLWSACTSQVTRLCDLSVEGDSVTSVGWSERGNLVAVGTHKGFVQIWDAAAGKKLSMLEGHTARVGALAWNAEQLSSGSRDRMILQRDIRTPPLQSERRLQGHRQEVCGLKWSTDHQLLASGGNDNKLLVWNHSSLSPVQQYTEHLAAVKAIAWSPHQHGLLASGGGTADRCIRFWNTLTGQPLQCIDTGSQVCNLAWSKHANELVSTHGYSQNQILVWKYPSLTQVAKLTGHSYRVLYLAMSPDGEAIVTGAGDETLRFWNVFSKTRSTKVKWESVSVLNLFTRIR

Experiments:
Myc-CDH1 [1] = biological target: Myc-CDH1 (UniProt Q9UM11); test: co-IP; HeLa cells transfected with FLAG-RNF157 (or mutant) and Myc-CDH1 or Myc-CDK2; lysate in Cell Extraction Buffer, immunoprecipitation with Myc antibody, blot with FLAG antibody; unsynchronized, nocodazole (G2/M) or double thymidine (G1/S) arrested cells, and cells treated with PI3K/MEK inhibitors or CDK2 inhibitor (2.1 and 4.2 μM, 8 h)
Myc-CDH1 [2] = biological target: Myc-CDH1 (UniProt Q9UM11); test: co-IP; interaction of RNF157 D-box mutants with CDH1, supplemental Fig. S4D; cells and set-up not shown

- binding (Myc-CDH1 [1]): binds
- binding (Myc-CDH1 [2]): binds
B1: FLAG-RNF157 full length (RING finger protein 157), wild type (protein, UniProt Q96PX1 1-679)
chain: MGALTSRQHAGVEEVDIPSNSVYRYPPKSGSYFASHFIMGGEKFDSTHPEGYLFGENSDLNFLGNRPVVFPYAAPPPQEPVKTLRSLVNIRKDTLRLVKCAEEVKSPGEEASKAKVHYNVEFTFDTDARVAITIYYQATEEFQNGIASYIPKDNSLQSETVQYKRGVCQQFCLPSHTVDPSEWAEEELGFDLDREVYPLVVHAVVDEGDEYFGHCHVLLGTFEKHTDGTFCVKPLKQKQVVDGVSYLLQEIYGIENKYNTQDSKVAEDEVSDNSAECVVCLSDVRDTLILPCRHLCLCNTCADTLRYQANNCPICRLPFRALLQIRAMRKKLGPLSPTSFNPIISSQTSDSEEHPSSENIPPGYEVVSLLEALNGPLTPSPAVPPLHVLGDGHLSGMLPSYGSDGHLPPVRTISPLDRLSDSSSQGLKLKKSLSKSTSQNSSVLHEEEDEHSCSESETQLSQRPSVQHLGEECGVTPESENLTLSSSGAIDQSSCTGTPLSSTISSPEGPASSSLAQSVMSMASSQISTDTVSSMSGSYIAPGTEEEGEALSSPQPASRAPSEEGEGLPAESPDSNFAGLPAGEQDAEGNDVIEEEDGSPTQEGQRTCAFLGMECDNNNDFDIASVKALDNKLCSEVCLPGAWQADDNAVSRNAQRRRLSSSSLEDSETRPCVWGPLAV

- binding (Myc-CDH1 [1]): binds
B2: FLAG-RNF157(4SA), serine 660-663-to-alanine mutant (protein, UniProt Q96PX1 1-679)
chain: B1 chain with S660A, S661A, S662A, S663A

- binding (Myc-CDH1 [1]): no binding
B3: FLAG-tagged phosphodeficient RNF157 mutant (Δ4S), Ser660-663 deleted (protein, UniProt Q96PX1)
chain: MGALTSRQHAGVEEVDIPSNSVYRYPPKSGSYFASHFIMGGEKFDSTHPEGYLFGENSDLNFLGNRPVVFPYAAPPPQEPVKTLRSLVNIRKDTLRLVKCAEEVKSPGEEASKAKVHYNVEFTFDTDARVAITIYYQATEEFQNGIASYIPKDNSLQSETVQYKRGVCQQFCLPSHTVDPSEWAEEELGFDLDREVYPLVVHAVVDEGDEYFGHCHVLLGTFEKHTDGTFCVKPLKQKQVVDGVSYLLQEIYGIENKYNTQDSKVAEDEVSDNSAECVVCLSDVRDTLILPCRHLCLCNTCADTLRYQANNCPICRLPFRALLQIRAMRKKLGPLSPTSFNPIISSQTSDSEEHPSSENIPPGYEVVSLLEALNGPLTPSPAVPPLHVLGDGHLSGMLPSYGSDGHLPPVRTISPLDRLSDSSSQGLKLKKSLSKSTSQNSSVLHEEEDEHSCSESETQLSQRPSVQHLGEECGVTPESENLTLSSSGAIDQSSCTGTPLSSTISSPEGPASSSLAQSVMSMASSQISTDTVSSMSGSYIAPGTEEEGEALSSPQPASRAPSEEGEGLPAESPDSNFAGLPAGEQDAEGNDVIEEEDGSPTQEGQRTCAFLGMECDNNNDFDIASVKALDNKLCSEVCLPGAWQADDNAVSRNAQRRRLLEDSETRPCVWGPLAV
